The results in this text go back to US20200055913A1.

Sequences of proteins named here, by UniProt entry; tags and fusion partners are left off. Residues count along the entry.
UniProt O00206, residues 24-631: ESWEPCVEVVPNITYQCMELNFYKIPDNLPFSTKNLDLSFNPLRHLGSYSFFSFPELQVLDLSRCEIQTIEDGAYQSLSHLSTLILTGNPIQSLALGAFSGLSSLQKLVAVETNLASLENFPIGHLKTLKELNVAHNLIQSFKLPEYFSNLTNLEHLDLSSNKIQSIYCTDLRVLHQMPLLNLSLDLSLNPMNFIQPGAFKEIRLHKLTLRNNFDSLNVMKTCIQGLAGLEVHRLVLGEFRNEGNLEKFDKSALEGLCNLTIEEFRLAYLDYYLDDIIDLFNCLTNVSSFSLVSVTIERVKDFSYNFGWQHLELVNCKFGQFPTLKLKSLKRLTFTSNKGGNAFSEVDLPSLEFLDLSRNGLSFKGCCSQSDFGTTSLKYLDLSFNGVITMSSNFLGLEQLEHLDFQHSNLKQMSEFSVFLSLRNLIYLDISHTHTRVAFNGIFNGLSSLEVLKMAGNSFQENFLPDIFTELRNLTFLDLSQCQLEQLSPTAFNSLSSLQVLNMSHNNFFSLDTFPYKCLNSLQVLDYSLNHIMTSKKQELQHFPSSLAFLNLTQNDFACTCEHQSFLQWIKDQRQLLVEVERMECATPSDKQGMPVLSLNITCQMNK

Results are given in words; binding and its absence hold for the method and conditions named. In cells and extracts the contact can be indirect. Some binding calls cover weakened binding; strength is not graded here.

Test [1] concerns the target histidine (his)-tagged human TLR4 (human) (UniProt O00206). As to the kind of experiment: competitive co-immunoprecipitation.
The target is the same in test [2]. As to the kind of experiment: competition pull-down: 500 ng/ml N-peptide with His-TLR4 on beads, then Flag-hRetn.

With MEEAINERIQEVAGSLIFRAISS [hRetn N-terminal peptide (1-23 a.a.) (SEQ ID NO: 2)], the binding entry in test [1] and in test [2] was “binds” in each case.
